Data as given in PubChem BioAssay AID1259308 (NCATS, 2017)
Aim: 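Knock-downs that increase output of a recombinant reporter protein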 (primary screen). Cells: human HEK293 embryonic kidney cells stably expressing firefly luciferase (HEK-CMV-Luc2-Hygro). Reagents: single siRNA against human genes, 0.8 pmol siRNA per well. Duration: 72 h. Detection: 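Reporter luminescence and viable-cell signal on separate replicate plates, given as percent of non-targeting control and median/MAD z-scores, plus per-cell luciferase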. Scale: total luciferase, z-score: higher = more reporter protein produced. Call rule: 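Active when the median/MAD z-score for overall luciferase is greater than 3; a gene was taken forward for validation with new siRNAs if at least two of its three siRNAs passed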. Meaning of the calls: active = raised luciferase; inactive = no rise.
The deposit covers about 59,000 reagents; this is an unselected part. About 1,510 of them (2.6%) count as active. 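Calls use total luciferase alone and ignore viability, so some active siRNAs may act by altering cell number.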 Unmarked entries are inactive. The numbers tell different reagents against one gene apart. Not all columns of the deposit are shown.

What is on record for NETO2 #1?
total luciferase, z-score: -0.236

Which result is listed for NETO2 #2?
total luciferase, z-score: -1.07

Which result is listed for NETO2 #3?
total luciferase, z-score: 1.92

For SMG5 #1, what was measured?
total luciferase, z-score: -0.518

With SMG5 #2, what does the deposit list?
total luciferase, z-score: -0.103

With SMG5 #3, what does the deposit list?
total luciferase, z-score: 1.15

How did the screen score LINC00927 #1?
total luciferase, z-score: -0.744

Which result is listed for LINC00927 #2?
total luciferase, z-score: -0.587

How did the screen score LINC00927 #3?
total luciferase, z-score: 0.562

What is on record for MOSPD2 #1?
total luciferase, z-score: -0.407

For MOSPD2 #2, what was measured?
total luciferase, z-score: -0.472

How did the screen score MOSPD2 #3?
total luciferase, z-score: 0.287

How did the screen score CLEC12A #1?
total luciferase, z-score: -0.216

For CLEC12A #2, how do the results read?
total luciferase, z-score: 1.84

How did the screen score CLEC12A #3?
total luciferase, z-score: -0.974

5 of these entries, set out differently:
gene knocked down	reagent no.	total luciferase, z-score
MOSPD2	2	-0.472
MOSPD2	3	0.287
CLEC12A	1	-0.216
CLEC12A	2	1.84
CLEC12A	3	-0.974

The results go on.
Which result is listed for DBF4B #1?
total luciferase, z-score: -0.275

How did the screen score DBF4B #2?
total luciferase, z-score: 1.13

What did the screen give for DBF4B #3?
total luciferase, z-score: 0.226

What did the screen give for ZNF211 #1?
total luciferase, z-score: 0.184

For ZNF211 #2, how do the results read?
total luciferase, z-score: 0.89

For ZNF211 #3, what was measured?
total luciferase, z-score: -1.11

Which result is listed for TMEM198 #1?
total luciferase, z-score: 1.36

What did the screen give for TMEM198 #2?
total luciferase, z-score: -1.5

How did the screen score TMEM198 #3?
total luciferase, z-score: -0.0763

For CDX4 #1, how do the results read?
total luciferase, z-score: 1.15

How did the screen score CDX4 #2?
total luciferase, z-score: 0.614

With CDX4 #3, how do the results read?
total luciferase, z-score: -0.153

How did the screen score FOXL1 #1?
total luciferase, z-score: 0.901

For FOXL1 #2, what was measured?
total luciferase, z-score: -0.31

How did the screen score FOXL1 #3?
total luciferase, z-score: 2.95

What did the screen give for IDUA #1?
total luciferase, z-score: -2.95

With IDUA #2, what was measured?
total luciferase, z-score: -0.202

With IDUA #3, what does the deposit list?
total luciferase, z-score: 1.12
